Results from article PMC6143631 (Nature Communications, 2018).
No constants are given. Whether binding was seen depends on the method and setting. In cells and extracts the contact can be indirect. Some binding calls cover weakened binding; strength is not graded here. Tags and fused reporters may be left off the sequences shown.

Tests used:
Assay in all cases: co-IP; HEK293T co-transfected with the yeast Paf1C subunits (GFP-Ctr9 or GFP-Paf1 as bait, the others Myc-tagged); agarose-conjugated anti-GFP, blot with anti-Myc
[1] = target: T1, GFP-Paf1 (S. cerevisiae) (UniProt P38351)
T1 sequence: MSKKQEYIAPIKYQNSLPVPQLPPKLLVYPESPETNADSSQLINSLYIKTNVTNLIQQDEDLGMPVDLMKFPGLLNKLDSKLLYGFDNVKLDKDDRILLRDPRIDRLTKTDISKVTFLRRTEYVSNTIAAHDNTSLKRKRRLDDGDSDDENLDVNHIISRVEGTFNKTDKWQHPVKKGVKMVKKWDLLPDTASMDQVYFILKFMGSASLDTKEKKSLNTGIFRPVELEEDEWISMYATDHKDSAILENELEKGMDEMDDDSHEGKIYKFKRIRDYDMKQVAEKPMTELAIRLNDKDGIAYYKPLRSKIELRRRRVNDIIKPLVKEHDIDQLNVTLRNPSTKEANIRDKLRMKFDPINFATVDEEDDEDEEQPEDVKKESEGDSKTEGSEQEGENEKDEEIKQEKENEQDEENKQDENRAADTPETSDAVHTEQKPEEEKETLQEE

[2] = target: T2, GFP-Paf1(4S) (S. cerevisiae) (UniProt P38351)
T2 sequence: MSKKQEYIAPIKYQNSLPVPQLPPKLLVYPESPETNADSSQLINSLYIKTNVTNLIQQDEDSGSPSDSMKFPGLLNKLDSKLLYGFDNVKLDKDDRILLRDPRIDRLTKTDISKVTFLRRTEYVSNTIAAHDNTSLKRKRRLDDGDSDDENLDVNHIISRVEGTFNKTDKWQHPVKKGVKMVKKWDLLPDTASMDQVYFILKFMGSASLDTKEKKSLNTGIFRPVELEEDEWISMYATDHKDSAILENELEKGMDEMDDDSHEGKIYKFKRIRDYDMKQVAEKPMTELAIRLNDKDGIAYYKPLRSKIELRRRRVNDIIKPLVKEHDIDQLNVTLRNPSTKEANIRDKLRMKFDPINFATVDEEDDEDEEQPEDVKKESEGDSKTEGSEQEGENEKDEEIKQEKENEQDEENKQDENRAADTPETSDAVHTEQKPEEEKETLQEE

[3] = target: T3, GFP-Paf1(D95K) (S. cerevisiae) (UniProt P38351)
T3 sequence: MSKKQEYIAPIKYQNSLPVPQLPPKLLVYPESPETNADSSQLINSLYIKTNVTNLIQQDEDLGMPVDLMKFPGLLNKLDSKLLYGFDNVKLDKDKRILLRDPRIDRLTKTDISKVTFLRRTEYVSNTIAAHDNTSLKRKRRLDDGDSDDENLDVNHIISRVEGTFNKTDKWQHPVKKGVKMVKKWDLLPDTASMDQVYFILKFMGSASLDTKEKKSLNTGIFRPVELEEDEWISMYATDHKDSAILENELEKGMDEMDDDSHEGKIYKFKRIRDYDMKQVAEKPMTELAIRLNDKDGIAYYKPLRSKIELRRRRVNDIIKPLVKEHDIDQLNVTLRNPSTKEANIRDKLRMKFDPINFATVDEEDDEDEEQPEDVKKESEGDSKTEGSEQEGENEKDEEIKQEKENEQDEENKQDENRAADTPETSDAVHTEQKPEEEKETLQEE

[4] = target: T4, GFP-Paf1(L83S) (S. cerevisiae) (UniProt P38351)
T4 sequence: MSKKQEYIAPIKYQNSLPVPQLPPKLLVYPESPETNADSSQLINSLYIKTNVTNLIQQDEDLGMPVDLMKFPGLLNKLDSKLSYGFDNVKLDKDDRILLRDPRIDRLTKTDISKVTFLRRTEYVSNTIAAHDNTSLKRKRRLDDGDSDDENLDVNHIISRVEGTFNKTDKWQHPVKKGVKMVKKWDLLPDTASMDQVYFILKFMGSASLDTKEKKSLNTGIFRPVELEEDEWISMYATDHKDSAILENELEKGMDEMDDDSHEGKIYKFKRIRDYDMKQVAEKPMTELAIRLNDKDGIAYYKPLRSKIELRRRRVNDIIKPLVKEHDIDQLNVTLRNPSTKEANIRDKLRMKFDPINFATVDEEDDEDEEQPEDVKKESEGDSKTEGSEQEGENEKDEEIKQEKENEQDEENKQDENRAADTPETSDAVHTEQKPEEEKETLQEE

Measured: binding

B1: Myc-Leo1 (protein, UniProt P38439 1-464)
chain: MSSESPQDQPQKEQISNNVGVTTNSTSNEETSRSQDDNVKEVNGNDDTKEEEQEEDAELDDLFGDDNDDDDDDDVKKSETEKSDSDSDEDDEGENINHRSRHRESLGLDDDEAEEQAMYTRKFYGEDANNFSDQDETTHTFKEENVELVRHIIPSKANVNETASHNEIFYARIPNFLTIDPIPFDPPSFEAKVNERASNSASREDQLDDRLIDENTVRWRYSRDKDQHVFKESNTQIVQWSDGTYSLKVGEECTDILVNDTSNTFLTVSHDQQELIQCYEGGEIKKTLMFIPTSTNSKIHQKLSKAVIRRNQRQSKGPGTYIVSMDPEVEKKELERKQSQILRDRRRRQLKEKEKQESPDAAFETGFRKQNSPTTYGASRRNEYEEDDFLVDDDEEEEAAFDDEEDDNEEEEEEEDADEENASRLRNLKREGAAMYREEEEEEKDRSETKRRRVAVIEDDEDED
binds: all assays above
